Each structure is given as a SMILES string. Values joined by “and” are separate entries in the source; they are usually repeats but may differ in a detail not shown here. Equal values may be shown once.

The values that follow come from article PMC6572064, “Discovery of 2-(1-(3-(4-Chloroxyphenyl)-3-oxo- propyl)pyrrolidine-3-yl)-1H-benzo[d]imidazole-4-carboxamide: A Potent Poly(ADP-ribose) Polymerase (PARP) Inhibitor for Treatment of Cancer” (Molecules, 2019).

In the data set the test system is CAPAN-1 (a BRCA-2-mutated pancreatic cancer cell line). The experiment in a line: Cell proliferation assay, three-day, CellTiter-Glo, CAPAN-1. In kind it is cell-based. The method, then:
A three-day assay was conducted. A cell suspension was prepared. Cell density was counted by an automated cell counter and then diluted to the required density, according to seeding density. 50 μL cells were seeded into 384-well plate in growth medium according to the plate map. The cells were incubated at 37 °C, 5% CO2 overnight.
200× compound solution in DMSO was prepared and diluted with growth medium to 26× final concentration by addition of 26 μL 200× compounds to 174 μL growth medium. Then 2 μL of diluted compound solution was added to cells and the cell was incubated at 37 °C, 5% CO2 for 72 h.
The assay plate was equilibrated to room temperature prior to measurement. 15 μL of CellTiter-Glo Reagent was added into each well and the contents were mixed for 2 min on an orbital shaker to induce cell lysis. The cells were incubated at room temperature for 60 min to stabilize luminescent signal. Luminescence was recorded on the Envision system.
For orientation: Cellular ATP, detected with luciferase, serves as a proxy for viable cell number.

[1] abbreviates: CAPAN-1, curve fit parameter, supplement Summary sheet.
Where [2] appears, read: CAPAN-1, summary line of the curve fit.
The mark [3] stands for this setting: CAPAN-1, curve-fit output, Inh %.
Setting [4] is: CAPAN-1, curve-fit parameter (Inh %).

As to `NC(=O)c1cccc2[nH]c(C3CCN(CC(=O)Nc4ccccc4)C3)nc12` (stereo not drawn) [Compound 5ca, 2-(1-(2-Oxo-2-(phenylamino)ethyl)pyrrolidin-3-yl)-1H-benzo[d]imidazole-4-carboxamide], under setting [1], the Bottom was 11.5, the Hillslope was determined as 1.0 and the Top result is “= 100.0”. In addition, under setting [2], the Bottom worked out at 11.48, the Hillslope came to 1.05 and the Top entry is “= 100.0”.

As for `NC(=O)c1cccc2[nH]c(C3CCN(CCC(=O)Nc4ccccc4)C3)nc12` (stereo not drawn) [Compound 5cb, 2-(1-(3-Oxo-3-(Phenylamino)propyl)pyrrolidin-3-yl)-1H-benzo[d]imidazole-4-carboxamide], the Bottom runs as follows: under setting [1], 4.2; under setting [3], 4.171; under setting [2], 4.17. Moreover, the Hillslope is, setting by setting: under setting [1], 1.6; (CAPAN-1, curve-fit output) 1.634; under setting [2], 1.63. Moreover, the Top entry by setting is: under setting [1], “= 100.0”; under setting [3], “= 100.0”; under setting [2], “= 100.0”.

`NC(=O)c1cccc2[nH]c(C3CCN(CCCC(=O)c4ccccc4)C3)nc12` (stereo not drawn) [Compound 5cc, 2-(1-(4-Oxo-4-phenylbutyl)pyrrolidin-3-yl)-1H-benzo[d]imidazole-4-carboxamide]: the Bottom under setting [1] was found to be 6.1, the Bottom under setting [3] is reported as 6.121 and the Bottom under setting [2] worked out at 6.12. In addition, the Hillslope under setting [1] was 4.6; the Hillslope (CAPAN-1, curve-fit output) was determined as 4.62; the Hillslope under setting [2] came to 4.62. The Top is, setting by setting: under setting [1], 99.8; under setting [3], 99.81; under setting [2], 99.81.

For the molecule `NC(=O)c1cccc2[nH]c(C3CCN(CC(=O)c4ccccc4)C3)nc12` (stereo not drawn) [Compound 5cd, 2-(1-(2-Oxo-2-phenylethyl)pyrrolidin-3-yl)-1H-benzo[d]imidazole-4-carboxa-mide], the Bottom is 2.3 under setting [1], 2.285 under setting [3] and 2.29 under setting [2]. Moreover, the Hillslope reads like this: under setting [1], 2.3; (CAPAN-1, curve-fit output) 2.268; under setting [2], 2.27. In addition, the Top result under setting [1] is listed as “= 100.0”, the Top result under setting [3] is given as “= 100.0” and the Top entry under setting [2] is “= 100.0”.

Regarding `NC(=O)c1cccc2[nH]c(C3CCN(CCC(O)c4ccccc4)C3)nc12` (stereo not drawn) [Compound 5cg, 2-(1-(3-Hydroxy-3-phenylpropyl)pyrrolidin-3-yl)-1H-benzo[d]imi-dazole-4-carboxamide], the Bottom is, setting by setting: under setting [1], 5.2; under setting [3], 5.177; under setting [2], 5.18. In addition, the Hillslope is, setting by setting: under setting [1], 0.9; (CAPAN-1, curve-fit output) 0.9121; under setting [2], 0.91. Moreover, the Top result is, setting by setting: under setting [1], “= 100.0”; under setting [3], “= 100.0”; under setting [2], “= 100.0”.

In the case of `NC(=O)c1cccc2[nH]c(C3CCN(CCCNc4ccccc4)C3)nc12` (stereo not drawn) [Compound 5ch, 2-(1-(3-(Phenylamino)propyl)pyrrolidin-3-yl)-1H-benzo[d]imidazole-4-carboxamide], the Bottom reads like this: under setting [1], 0.5; under setting [3], 0.5258; under setting [2], 0.53. The Hillslope by setting is: under setting [1], 0.9; (CAPAN-1, curve-fit output) 0.9232; under setting [2], 0.92. The Top result is listed as “= 100.0” under setting [1], “= 100.0” under setting [3] and “= 100.0” under setting [2].

Take `COc1ccc(C(=O)CCN2CCC(c3nc4c(C(N)=O)cccc4[nH]3)C2)cc1` (stereo not drawn) [Compound 5ci, 2-(1-(3-(4-Methoxyphenyl)-3-oxopropyl)pyrrolidin-3-yl)-1H-benzo[d]imidazole-4-carboxamide]: the Bottom is, setting by setting: under setting [1], -0.159; under setting [3], -0.1586; under setting [2], -0.16. For the same molecule, the Hillslope is, setting by setting: under setting [1], 2.9; (CAPAN-1, curve-fit output) 2.876; under setting [2], 2.88. The Top is, setting by setting: under setting [1], 90.3; under setting [3], 90.32; under setting [2], 90.32.

In the case of `NC(=O)c1cccc2[nH]c(C3CCN(CCC(=O)c4ccc(Cl)cc4)C3)nc12` (stereo not drawn) [Compound 5cj], the Bottom is, setting by setting: under setting [1], 2.7; under setting [3], 2.693; under setting [2], 2.69. The Hillslope runs as follows: under setting [1], 3.5; (CAPAN-1, curve-fit output) 3.49; under setting [2], 3.49. Also, the Top under setting [1] is 99.5, the Top under setting [3] came to 99.46 and the Top under setting [2] was 99.46.

Under setting [1], `NC(=O)c1cccc2[nH]c(C3CCN(CCC(=O)c4ccccc4)C3)nc12` (stereo not drawn) [Compound 5cp, 2-(1-(3-Oxo-3-phenylpropyl)pyrrolidin-3-yl)-1H-benzo[d]imidazole-4-carboxamide] returned a Bottom of -1.7, a Hillslope of 5.3 and a Top of 99.4. The Hillslope (CAPAN-1, curve-fit parameter) is 5.344 and 5.34. The Top under setting [4] stood at 99.41.

Under setting [1], `CN[C@@H]1C[C@H]2O[C@@](C)([C@@H]1OC)n1c3ccccc3c3c4c(c5c6ccccc6n2c5c31)C(=O)NC4` [STS, reference compound] displayed a Bottom of 8.4, a Hillslope of 0.6 and a Top of 105.1.

With `C[C@]1(c2nc3c(C(N)=O)cccc3[nH]2)CCCN1` [pc1, Veliparib, reference compound], under setting [1], the Bottom is given as -2.5, the Hillslope came out at 1.4 and the Top entry was “= 100.0”. Besides, the Hillslope (CAPAN-1, curve-fit parameter) is 1.432 and 1.43. In addition, the Top result under setting [4] is recorded as “= 100.0”.

Take `O=C(c1cc(Cc2n[nH]c(=O)c3ccccc23)ccc1F)N1CCN(C(=O)C2CC2)CC1` [pc2, Olaparib, reference compound]: under setting [1], the Bottom was -1.4, the Hillslope is 0.5 and the Top amounted to 99.7. In addition, the Hillslope (CAPAN-1, curve-fit parameter) was 0.4926 and 0.49. Under setting [4], this molecule gave a Top of 99.65.
